Data from publication PMC3531308.

Target: APH-2ΔbZIP-His (HTLV-2)
Assay: co-IP; 293T cells transiently co-transfected with two tagged proteins; nuclear (in places called cellular) extracts 48 h after transfection, 400 ug; IP with 5 ug anti-FLAG, anti-Myc or anti-6xHis overnight at 4°C, Protein A/G beads; washes with 120 mM and 400 mM NaCl, 0.5% NP-40; Western blot

B1: FLAG-JunB (protein, UniProt P17275 1-347)
chain: MCTKMEQPFYHDDSYTATGYGRAPGGLSLHDYKLLKPSLAVNLADPYRSLKAPGARGPGPEGGGGGSYFSGQGSDTGASLKLASSELERLIVPNSNGVITTTPTPPGQYFYPRGGGSGGGAGGAGGGVTEEQEGFADGFVKALDDLHKMNHVTPPNVSLGATGGPPAGPGGVYAGPEPPPVYTNLSSYSPASASSGGAGAAVGTGSSYPTTTISYLPHAPPFAGGHPAQLGLGRGASTFKEEPQTVPEARSRDATPPVSPINMEDQERIKVERKRLRNRLAATKCRKRKLERIARLEDKVKTLKAENAGLSSTAGLLREQVAQLKQKVMTHVSNGCQLLLGVKGHAF
binding: no binding

B2: FLAG-JunD (protein, UniProt P17535 1-347)
chain: METPFYGDEALSGLGGGASGSGGSFASPGRLFPGAPPTAAAGSMMKKDALTLSLSEQVAAALKPAAAPPPTPLRADGAPSAAPPDGLLASPDLGLLKLASPELERLIIQSNGLVTTTPTSSQFLYPKVAASEEQEFAEGFVKALEDLHKQNQLGAGAAAAAAAAAAGGPSGTATGSAPPGELAPAAAAPEAPVYANLSSYAGGAGGAGGAATVAFAAEPVPFPPPPPPGALGPPRLAALKDEPQTVPDVPSFGESPPLSPIDMDTQERIKAERKRLRNRIAASKCRKRKLERISRLEEKVKTLKSQNTELASTASLLREQVAQLKQKVLSHVNSGCQLLPQHQVPAY
binding: no binding

These are yes or no findings as the source states them, for the method shown. In cells and extracts the contact can be indirect. Tags and fused reporters may be left off the sequences shown.
